No constants are given. Whether binding was seen depends on the method and setting. Some entries that bind do so weakly or less than the wild type.
T1: human B7-H3 naturally expressed on the surface of SKOV3 cells (human) (UniProt Q5ZPR3)
T1 sequence (looked up): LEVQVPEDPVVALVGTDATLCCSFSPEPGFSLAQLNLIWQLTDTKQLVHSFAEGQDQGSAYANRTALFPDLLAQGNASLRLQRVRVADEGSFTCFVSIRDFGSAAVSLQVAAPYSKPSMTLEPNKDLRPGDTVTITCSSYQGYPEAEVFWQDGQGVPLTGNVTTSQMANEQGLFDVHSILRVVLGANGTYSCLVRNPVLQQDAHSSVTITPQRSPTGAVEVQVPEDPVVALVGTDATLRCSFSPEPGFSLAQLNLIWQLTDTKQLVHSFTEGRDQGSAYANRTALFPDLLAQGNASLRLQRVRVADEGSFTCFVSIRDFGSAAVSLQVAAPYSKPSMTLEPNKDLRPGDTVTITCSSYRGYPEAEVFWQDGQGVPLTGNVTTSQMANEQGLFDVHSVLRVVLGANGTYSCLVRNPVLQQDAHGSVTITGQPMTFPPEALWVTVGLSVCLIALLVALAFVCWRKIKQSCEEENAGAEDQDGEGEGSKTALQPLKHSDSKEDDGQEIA

B1: hz10B4m1 (antibody, V domains shown)
VH: EVQLVQSGAEVKKPGASVKVSCKASGYTFTEYIMHWVRQAPGQGLEWMGGINPASGGTTYNQKFKGRVTMTRDTSISTAYMELSRLRSEDTAVYYCARKGKDYFDWYFDVWGQGTTVTVSS
VL: DIQLTQSPSSLSASVGDRVTMTCSASSSVSYMHWYQQKPGKAPKLLIYDTSKLASGVPSRFSGSGSGTDFTLTISSLQPEDFATYYCQQWSSAPLTFGGGTKVEIK
notes: LCDR3 variant of hz10B4 (SSN→SSA); also called hz10B4-VH×hz10B4-Lm1-VL
B2: hz10B4m3 (antibody, V domains shown)
VH: EVQLVQSGAEVKKPGASVKVSCKASGYTFTEYIMHWVRQAPGQGLEWMGGINPASGGTTYNQKFKGRVTMTRDTSISTAYMELSRLRSEDTAVYYCARKGKDYFDWYFDVWGQGTTVTVSS
VL: DIQLTQSPSSLSASVGDRVTMTCSASSSVSYMHWYQQKPGKAPKLLIYDTSKLASGVPSRFSGSGSGTDFTLTISSLQPEDFATYYCQQWSSQPLTFGGGTKVEIK
notes: LCDR3 variant of hz10B4 (SSN→SSQ); also called hz10B4-VH×hz10B4-Lm3-VL
B3: hz10B4m2 (antibody, V domains shown)
VH: EVQLVQSGAEVKKPGASVKVSCKASGYTFTEYIMHWVRQAPGQGLEWMGGINPASGGTTYNQKFKGRVTMTRDTSISTAYMELSRLRSEDTAVYYCARKGKDYFDWYFDVWGQGTTVTVSS
VL: DIQLTQSPSSLSASVGDRVTMTCSASSSVSYMHWYQQKPGKAPKLLIYDTSKLASGVPSRFSGSGSGTDFTLTISSLQPEDFATYYCQQWSASPLTFGGGTKVEIK
notes: LCDR3 variant of hz10B4 (SSN→SAS); also called hz10B4-VH×hz10B4-Lm2-VL

Molecular target: T1, human B7-H3 naturally expressed on the surface of SKOV3 cells (human)
Experiment: flow cytometry on SKOV3 cells

binding, binds:
B1
B2
B3
